According to the supplement of paper PMC12889115:
The list shows a part of the results. Values are raw readings; no control value is given beside them.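 In the initial screen, polymyxin B was used at a concentration that permeabilizes Salmonella's outer membrane but not its inner membrane. Maximum growth was set by DMSO wells with or without polymyxin B. Since plates varied, data were ranked per plate, and compounds giving the lowest OD600 advanced as hits.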

Tested on: Salmonella enterica serovar Typhimurium SL1344
Experiment: bacterial growth OD600 after 18 h with compound and polymyxin B; higher = more bacterial growth (less inhibition)
Conditions: 50 µM, Mueller-Hinton broth

Compound | bacterial growth OD600 (polymyxin B 1 µg/mL) | bacterial growth OD600 (polymyxin B 0.75 µg/mL)
Clc1ccc(N2CCN(Cc3nc(-c4cccs4)no3)CC2)nc1 | 0.778 | –
Cc1ncc2c(c1CNC(=O)/C=C/c1cccs1)CCN(C(=O)c1cccc(Cn3cccn3)c1)C2 | – | 0.796
O=C(CC1(c2ccccc2)CC(=O)N(CCCOc2cccnc2)C1=O)N1CCc2ccccc2C1 (stereo unspecified) | – | 0.042
CC(C)Oc1ccc(C(=O)N2CCC3(CC2)CC3C(=O)N2CCN(c3ccccn3)CC2)cc1 (stereo unspecified) | – | 0.927
COc1ccc(CCCN2C(=O)O[C@@H]3CN(c4ccnc(SC)n4)C[C@@H]32)cc1 | 1.04 | –
COCCn1cnc2cc(NC(=O)C3CCCCC3)cc(C(=O)N(C)Cc3ccc(F)cc3)c21 | – | 0.731
Cc1c(C(C)NC(=O)NCCc2ccccc2)cnn1-c1ccccn1 (stereo unspecified) | – | 0.857
Cc1cccc2c(NCc3ccccc3F)nc(CNC(=O)CN3CC(c4ccccc4)CC3=O)nc12 (stereo unspecified) | – | 0.015
CCc1csc(CNC(=O)c2ccc(N(C)Cc3ccccn3)nc2)n1 | 0.775 | –
Cc1cccnc1CN(C)C(=O)C1CCC(=O)N(CCc2cccc(F)c2)C1 (stereo unspecified) | 0.901 | –
O=C(c1ccc(NCC2CCOCC2)nc1)N1CCCC(c2ccccc2)CC1 (stereo unspecified) | – | 0.696
CCOC(=O)C1(CCCc2ccccc2)CCN(C(=O)c2cnn(CC)c2)CC1 | 0.732 | –
CCOC(=O)C1(Cc2cccc(F)c2)CCN(C(=O)c2cnc(C)cn2)CC1 | 0.98 | –
Cc1nonc1CC(=O)N(C)CC1CCCN(CCc2ccc(Cl)cc2)C1 (stereo unspecified) | 0.832 | –
Cc1cccc2nc(CN(C)C(=O)C3CCC(=O)N(CCc4ccccc4)C3)[nH]c12 (stereo unspecified) | 0.827 | –
O=C(NCCc1ccccc1Cl)C1CCC(=O)N(Cc2ccc(Cl)cc2)C1 (stereo unspecified) | 0.657 | –

Compound | bacterial growth OD600 (polymyxin B 1 µg/mL) | bacterial growth OD600 (polymyxin B 0.75 µg/mL)
COc1ccc(-c2cnnc(NCC3CCCCO3)n2)cc1F (stereo unspecified) | – | 0.634
O=C(Nc1ccc(Oc2ccccc2F)cc1)C1CCN(Cc2ccoc2)CC1 | – | 0.563
CN(CC1(O)CCCN(CCc2ccccc2)C1=O)C1CCCCC1 (stereo unspecified) | 0.887 | –
C=CCO[C@H]1[C@H](NC(=O)COC)c2ccccc2C12CCN(Cc1ccccc1-c1ccco1)CC2 | – | 0.879
O=C(NCCCc1ccncc1)C1CC12CCN(C(=O)c1csc(-c3cccs3)n1)CC2 (stereo unspecified) | – | 0.792
CC(C)CN1CCN(C(=O)c2cn(C(c3ccccc3)c3ccccc3)nn2)[C@@H](C)C1=O | 0.346 | –
CC(C)c1nc(CNC(=O)c2ccc(OCC3(C)CCCNC3)nc2)no1 (stereo unspecified) | – | 0.988
COc1ccc(C(=O)N2CCCC2)c(OC2CCN(C(C)COc3ccccc3)CC2)c1 (stereo unspecified) | 1.02 | –
O=C(c1cc2c(nc1Cl)CCC2)N1CCCC(Nc2ccc3c(c2)OCCO3)C1 (stereo unspecified) | 0.801 | –
COc1ccc(CNC(C)c2cnn(-c3ccccc3)c2C)cc1O (stereo unspecified) | – | 0.816
O=C(c1ccc(N2CCOCC2)nc1)N1CCC(CCc2ccccc2)CC1 | 0.578 | –
O=C(Cc1cccc(Cl)c1)NC1CC(=O)N(Cc2ccc(F)cc2)C1 (stereo unspecified) | 0.7 | –
CC#CC(=O)N1CCCC(C(=O)Nc2ccc(-c3cccc(OC)c3)cc2)C1 (stereo unspecified) | 0.887 | –
CN1CCCCC1C(=O)N1CCC(C2(c3ccccn3)NC(=O)N(CCc3cccs3)C2=O)CC1 (stereo unspecified) | – | 0.768
CCN(CC)CC(=O)NC1CCCc2nc(N(C)C)ncc21 (stereo unspecified) | 1.1 | –

Look-ups from the list.
`CC(C)CN1CCN(C(=O)c2cn(C(c3ccccc3)c3ccccc3)nn2)[C@@H](C)C1=O` – bacterial growth OD600 (polymyxin B 1 µg/mL): 0.346
`O=C(Nc1ccc(Oc2ccccc2F)cc1)C1CCN(Cc2ccoc2)CC1` – bacterial growth OD600 (polymyxin B 0.75 µg/mL): 0.563
